Laboratory results: PubChem BioAssay AID504764 (Drosophila RNAi Screening Center, 2011)
The deposit covers about 22,000 reagents; this is a random part of those that have a named target and a result. In the full data, 403 (1.9%) are marked active. 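Unnormalised raw counts per well; ratio z-scores behind the hit calls and whether each hit raises or lowers signal are not deposited.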 Names joined by + are all predicted targets of the reagent. Not stated in the record: the amount of reagent.

Screen: 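Genome-wide screen for regulators of Notch-driven gene expression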 (primary screen)
System: Drosophila Kc167 cells
Knock-down reagent: long dsRNA against Drosophila genes
Time to read-out: about 5 days (4 days dsRNA, then 24 h after transfection)
Conditions: transfection of constitutively active membrane-tethered Notch lacking the extracellular domain, read 24 h later
Read-out: 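Light from a Notch-responsive E(spl)m3 luciferase reporter under active Notch, with control-promoter and no-Notch reporter wells to normalise; raw counts from paired wells a and b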
Reading the numbers: induced reporter light, run 1, well a and induced reporter light, run 1, well b: higher = more light from the Notch target reporter with active Notch; control promoter light, run 1, well a and control promoter light, run 1, well b: higher = more light from the viral control promoter (cell number, transfection, viability); uninduced reporter light, run 1, well a: higher = more light from the Notch target reporter without active Notch
Call rule: 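Wells with low control signal or poorly matching duplicates excluded; duplicates averaged; per source plate, z beyond ±2 for induced/control log2 ratio or beyond ±1.8 for induced/uninduced marks a hit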
Meaning of the calls: active = modifier hit (raised or lowered Notch signal); inactive = not a hit

no.	target	dsRNA	induced reporter light, run 1, well a	induced reporter light, run 1, well b	control promoter light, run 1, well a	control promoter light, run 1, well b	uninduced reporter light, run 1, well a	outcome
1	DptB (Diptericin B)	DRSC06001	87925	77600	1.01e5	89190	7205	inactive
2	amd (alpha methyl dopa-resistant)	DRSC02608	39670	33850	28235	27370	2285	inactive
3	amd (alpha methyl dopa-resistant)	DRSC03483	51055	44070	43880	46640	3315	inactive
4	Polr1D + DCTN6-p27	DRSC02094	50210	47515	39075	30345	3070	inactive
5	ash2 (absent, small, or homeotic discs 2)	DRSC16902	1.80e5	1.80e5	1.78e5	1.63e5	16770	inactive
6	CG6602	DRSC10673	2.21e5	1.62e5	1.71e5	1.57e5	7320	inactive
7	CG16970 (retired record)	DRSC01310	1.13e5	77850	1.28e5	1.14e5	8015	inactive
8	CG16970 (retired record)	DRSC02549	1.32e5	1.71e5	1.74e5	1.58e5	13770	inactive
9	CG33285	DRSC11463	2.08e5	2.14e5	2.56e5	2.66e5	18905	inactive
10	SmE (Small ribonucleoprotein particle protein SmE)	DRSC02680	40055	47615	36070	42860	3850	inactive
11	ksh (kish)	DRSC19554	84320	1.05e5	1.19e5	1.17e5	11705	inactive
12	CG9395	DRSC03218	1.90e5	1.87e5	2.13e5	2.16e5	12215	inactive
13	CG15550	DRSC15088	96125	1.08e5	1.17e5	1.40e5	9325	inactive
14	CG4194	DRSC18520	1.43e5	1.54e5	2.24e5	2.34e5	10310	inactive
15	unc79 (uncoordinated 79)	DRSC15746	1.50e5	1.65e5	1.90e5	2.14e5	13038	inactive
16	CG14853	DRSC14977	1.78e5	1.64e5	1.65e5	1.61e5	11585	inactive
17	Sps1 (Selenophosphate synthetase 1)	DRSC07549	1.81e5	1.40e5	2.23e5	2.00e5	14735	inactive
18	CG11788	DRSC06084	45530	36640	31540	33070	4850	inactive
19	CG34326 (retired record)	DRSC19165	85235	89440	1.03e5	1.00e5	9490	inactive
20	CG33306	DRSC01899	2.07e5	2.44e5	1.88e5	2.10e5	16300	inactive
21	CG17027	DRSC10238	1.44e5	1.42e5	59000	83310	8135	inactive
22	CG11262	DRSC09831	1.50e5	1.60e5	2.09e5	1.70e5	8860	inactive

Single entries from above.
Entry for CG14853 [DRSC14977] under “induced reporter light, run 1, well b”: 1.64e5
CG16970 (retired record) [DRSC01310], induced reporter light, run 1, well a: 1.13e5

The listing continues.
no.	target	dsRNA	induced reporter light, run 1, well a	induced reporter light, run 1, well b	control promoter light, run 1, well a	control promoter light, run 1, well b	uninduced reporter light, run 1, well a	outcome
23	Uvrag (UV-resistance associated gene)	DRSC02932	3.10e5	2.80e5	2.25e5	2.13e5	21728	inactive
24	mia (meiosis I arrest)	DRSC12137	1.68e5	1.70e5	1.06e5	97870	13342	inactive
25	SP1173	DRSC11277	1.04e5	1.31e5	83155	30995	10905	inactive
26	CG13675	DRSC08908	68670	59785	45450	54945	7380	inactive
27	CG13675	DRSC10034	15285	14990	12585	10535	6295	inactive
28	Cypl (Cyclophilin-like)	DRSC08362	1.22e5	1.22e5	1.86e5	1.47e5	9680	inactive
29	CG4575 (retired record)	DRSC18372	1.20e5	1.18e5	2.14e5	2.22e5	8620	inactive
30	mthl3 (methuselah-like 3)	DRSC06997	80230	88855	1.61e5	1.46e5	7325	inactive
31	Antp (Antennapedia)	DRSC12490	15910	18260	12470	10885	4845	inactive
32	Drs (Drosomycin)	DRSC08657	1.36e5	1.28e5	2.20e5	1.96e5	10630	inactive
33	Cpr47Ec (Cuticular protein 47Ec)	DRSC07332	1.03e5	1.35e5	1.52e5	1.29e5	11075	inactive
34	tipE (temperature-induced paralytic E)	DRSC08738	1.62e5	1.84e5	1.20e5	51100	11135	inactive
